Reference: US20090305888A1, “Materials and Methods for Providing Oxygen to Improve Seed Germination and Plant Growth” (priority 2006, published 2009)

How the values were obtained:
corn plants = experiment: Oxygen level of different oxygen sources in pot experiments (1800 ml); conditions: for oxygen level in culture pots: 1800 ml 200% nutrient solution, 2 ml 3% hydrogen peroxide or 2 grams of solid, FIGS. 19a and 19b
[1] = system: corn plant at three-leaf stage; experiment: Depletion of oxygen by one corn plant in 50 ml solution; conditions: 50 ml 200% strength nutrient solution

| SMILES | oxygen level in culture pots (corn plants) | maintenance of oxygen release ([1]; FIGS. 14 and 15) | oxygen level compared with magnesium peroxide ([1]; FIGS. 14 and 15) | oxygen level compared with magnesium peroxide ([1]; FIGS. 14 and 15, listed as Calcium peroxide) | day of single peak of oxygen level (corn plants; 2 grams of calcium peroxide per 1800 ml pot, FIG. 19b) [days] |
| --- | --- | --- | --- | --- | --- |
| O=C([O-])[O-].O=C([O-])[O-].OO.OO.OO.[Na+].[Na+].[Na+].[Na+] [sodium percarbonate] | much higher |  |  |  |  |
| OO [hydrogen peroxide] | very fluctuant |  |  |  |  |
| [Ca+2].[O-][O-] [calcium peroxide] | double the oxygen level of aerating treatment | could maintain oxygen release for much longer periods of time | much higher level of oxygen release than magnesium peroxide | much higher level of oxygen than magnesium peroxide | 2 |
| [Mg+2].[O-][O-] [magnesium peroxide] | consistent and much higher than the hypoxic treatment and even higher than the treatment with hydrogen peroxide | could maintain oxygen release for much longer periods of time |  |  |  |
